For 29 targets, log2 fold change results are on record in the supplement of paper PMC12819154, “High-throughput peptide-centric local stability assay extends protein–ligand identification to membrane proteins, tissues and bacteria” (Nature Structural & Molecular Biology, 2025).

Sequences of proteins named here, by UniProt entry; tags and fusion partners are left off. A change or cut given only in a name is not applied to a line headed by its entry.
UniProt Q6ZPT1: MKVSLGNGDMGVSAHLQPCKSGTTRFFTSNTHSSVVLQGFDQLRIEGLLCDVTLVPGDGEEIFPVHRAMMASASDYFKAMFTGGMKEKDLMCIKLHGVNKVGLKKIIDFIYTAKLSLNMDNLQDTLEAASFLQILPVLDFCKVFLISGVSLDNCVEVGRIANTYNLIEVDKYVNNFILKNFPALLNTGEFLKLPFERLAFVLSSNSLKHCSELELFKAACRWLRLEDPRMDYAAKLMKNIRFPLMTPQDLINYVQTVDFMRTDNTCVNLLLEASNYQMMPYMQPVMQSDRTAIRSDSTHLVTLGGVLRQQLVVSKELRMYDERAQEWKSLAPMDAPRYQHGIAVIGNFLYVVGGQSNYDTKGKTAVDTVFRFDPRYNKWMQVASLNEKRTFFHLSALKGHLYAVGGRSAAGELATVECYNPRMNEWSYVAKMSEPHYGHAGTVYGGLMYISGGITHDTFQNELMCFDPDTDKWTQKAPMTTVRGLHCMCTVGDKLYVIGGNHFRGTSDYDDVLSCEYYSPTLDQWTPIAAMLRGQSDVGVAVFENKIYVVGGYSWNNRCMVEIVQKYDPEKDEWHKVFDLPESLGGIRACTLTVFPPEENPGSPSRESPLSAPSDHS
UniProt Q6ZPY2: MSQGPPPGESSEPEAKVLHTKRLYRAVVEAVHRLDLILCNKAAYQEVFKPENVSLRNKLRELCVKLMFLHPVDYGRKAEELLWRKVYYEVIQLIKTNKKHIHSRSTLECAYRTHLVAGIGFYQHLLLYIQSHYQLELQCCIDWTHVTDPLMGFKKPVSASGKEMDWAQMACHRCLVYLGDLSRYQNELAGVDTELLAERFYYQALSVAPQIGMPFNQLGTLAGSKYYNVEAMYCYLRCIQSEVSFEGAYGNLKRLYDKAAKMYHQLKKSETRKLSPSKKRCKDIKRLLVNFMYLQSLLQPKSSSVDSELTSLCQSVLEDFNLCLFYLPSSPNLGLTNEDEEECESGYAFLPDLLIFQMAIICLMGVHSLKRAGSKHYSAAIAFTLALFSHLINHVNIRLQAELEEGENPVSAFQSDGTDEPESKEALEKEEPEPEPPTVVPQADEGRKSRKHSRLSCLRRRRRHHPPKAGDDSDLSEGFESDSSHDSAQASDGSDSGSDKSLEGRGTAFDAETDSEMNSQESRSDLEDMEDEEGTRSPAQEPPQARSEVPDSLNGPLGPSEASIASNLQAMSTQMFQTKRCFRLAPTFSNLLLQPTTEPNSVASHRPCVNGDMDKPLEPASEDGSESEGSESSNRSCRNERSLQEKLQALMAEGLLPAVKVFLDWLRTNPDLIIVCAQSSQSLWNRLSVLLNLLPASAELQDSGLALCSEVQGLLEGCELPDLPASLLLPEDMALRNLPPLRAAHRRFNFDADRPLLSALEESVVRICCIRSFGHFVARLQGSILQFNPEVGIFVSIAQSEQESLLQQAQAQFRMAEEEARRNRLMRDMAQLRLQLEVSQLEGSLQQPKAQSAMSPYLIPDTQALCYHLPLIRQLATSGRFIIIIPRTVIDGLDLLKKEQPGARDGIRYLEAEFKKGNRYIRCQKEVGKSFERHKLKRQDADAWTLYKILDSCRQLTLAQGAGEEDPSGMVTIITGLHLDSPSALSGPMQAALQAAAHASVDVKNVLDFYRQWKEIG
UniProt Q7TSN7: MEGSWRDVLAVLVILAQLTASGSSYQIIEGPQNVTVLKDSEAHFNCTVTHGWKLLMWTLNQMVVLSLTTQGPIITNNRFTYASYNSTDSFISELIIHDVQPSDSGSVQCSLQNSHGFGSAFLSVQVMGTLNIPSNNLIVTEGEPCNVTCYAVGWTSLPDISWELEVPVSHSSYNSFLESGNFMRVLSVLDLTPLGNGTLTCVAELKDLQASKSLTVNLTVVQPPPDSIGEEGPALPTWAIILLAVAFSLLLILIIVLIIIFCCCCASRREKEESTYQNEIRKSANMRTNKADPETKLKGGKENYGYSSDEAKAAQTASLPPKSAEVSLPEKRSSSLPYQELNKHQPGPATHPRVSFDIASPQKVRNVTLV
UniProt Q6WKZ8: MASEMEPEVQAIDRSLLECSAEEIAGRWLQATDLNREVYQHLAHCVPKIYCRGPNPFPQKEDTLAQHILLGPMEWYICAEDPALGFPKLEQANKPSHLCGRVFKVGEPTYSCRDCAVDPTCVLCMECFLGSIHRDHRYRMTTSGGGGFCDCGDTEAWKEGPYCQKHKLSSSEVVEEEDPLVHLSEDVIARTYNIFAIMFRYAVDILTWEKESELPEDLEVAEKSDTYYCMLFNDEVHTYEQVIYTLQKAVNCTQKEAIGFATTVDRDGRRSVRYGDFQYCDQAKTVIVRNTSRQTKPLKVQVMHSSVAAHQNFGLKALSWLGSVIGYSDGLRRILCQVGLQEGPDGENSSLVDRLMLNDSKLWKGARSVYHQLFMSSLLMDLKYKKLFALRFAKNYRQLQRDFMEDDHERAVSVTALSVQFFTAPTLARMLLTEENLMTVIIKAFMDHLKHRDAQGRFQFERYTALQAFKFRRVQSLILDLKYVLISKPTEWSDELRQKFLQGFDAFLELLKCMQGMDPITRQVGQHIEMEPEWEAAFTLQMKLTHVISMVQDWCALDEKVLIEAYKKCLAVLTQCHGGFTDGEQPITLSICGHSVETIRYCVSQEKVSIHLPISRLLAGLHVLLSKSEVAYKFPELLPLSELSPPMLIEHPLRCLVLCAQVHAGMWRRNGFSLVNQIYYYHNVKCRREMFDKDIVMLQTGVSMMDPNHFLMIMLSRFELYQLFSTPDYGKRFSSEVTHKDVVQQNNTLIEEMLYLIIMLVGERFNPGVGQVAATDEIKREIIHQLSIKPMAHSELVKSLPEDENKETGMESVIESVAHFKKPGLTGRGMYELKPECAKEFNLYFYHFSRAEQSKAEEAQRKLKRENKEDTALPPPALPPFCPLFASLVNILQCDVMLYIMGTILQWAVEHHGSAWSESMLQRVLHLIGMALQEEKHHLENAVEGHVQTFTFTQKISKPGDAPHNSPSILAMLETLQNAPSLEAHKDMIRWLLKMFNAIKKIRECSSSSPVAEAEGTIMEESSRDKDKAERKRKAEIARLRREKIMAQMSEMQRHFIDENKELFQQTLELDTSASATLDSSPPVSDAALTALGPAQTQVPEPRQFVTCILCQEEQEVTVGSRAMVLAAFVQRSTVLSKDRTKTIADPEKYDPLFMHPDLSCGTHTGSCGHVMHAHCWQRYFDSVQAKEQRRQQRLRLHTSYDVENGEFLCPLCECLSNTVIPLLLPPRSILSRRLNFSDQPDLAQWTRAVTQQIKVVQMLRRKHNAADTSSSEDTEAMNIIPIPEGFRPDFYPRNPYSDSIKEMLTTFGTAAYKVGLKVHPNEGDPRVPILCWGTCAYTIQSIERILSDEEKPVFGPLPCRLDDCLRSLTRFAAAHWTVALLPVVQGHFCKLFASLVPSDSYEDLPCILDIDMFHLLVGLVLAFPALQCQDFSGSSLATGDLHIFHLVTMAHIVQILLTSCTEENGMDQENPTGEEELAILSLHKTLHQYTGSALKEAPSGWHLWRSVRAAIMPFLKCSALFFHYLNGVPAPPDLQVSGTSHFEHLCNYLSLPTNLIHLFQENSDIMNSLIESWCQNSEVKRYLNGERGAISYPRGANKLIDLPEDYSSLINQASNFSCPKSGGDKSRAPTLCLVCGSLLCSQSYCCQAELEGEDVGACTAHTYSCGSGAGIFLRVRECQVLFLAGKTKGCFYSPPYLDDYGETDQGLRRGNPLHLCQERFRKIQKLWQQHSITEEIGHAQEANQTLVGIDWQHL
UniProt Q80UG1: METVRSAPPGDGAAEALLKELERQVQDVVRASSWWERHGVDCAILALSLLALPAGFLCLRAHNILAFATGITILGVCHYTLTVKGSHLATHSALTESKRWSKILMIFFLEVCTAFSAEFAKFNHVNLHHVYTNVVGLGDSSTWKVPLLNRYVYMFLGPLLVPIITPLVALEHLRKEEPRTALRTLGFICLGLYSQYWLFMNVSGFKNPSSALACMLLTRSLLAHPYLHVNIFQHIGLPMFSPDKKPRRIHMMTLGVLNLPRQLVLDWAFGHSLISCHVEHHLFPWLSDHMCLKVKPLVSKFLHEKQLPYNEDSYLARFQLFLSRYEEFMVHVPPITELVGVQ
UniProt Q71KU9, whole entry: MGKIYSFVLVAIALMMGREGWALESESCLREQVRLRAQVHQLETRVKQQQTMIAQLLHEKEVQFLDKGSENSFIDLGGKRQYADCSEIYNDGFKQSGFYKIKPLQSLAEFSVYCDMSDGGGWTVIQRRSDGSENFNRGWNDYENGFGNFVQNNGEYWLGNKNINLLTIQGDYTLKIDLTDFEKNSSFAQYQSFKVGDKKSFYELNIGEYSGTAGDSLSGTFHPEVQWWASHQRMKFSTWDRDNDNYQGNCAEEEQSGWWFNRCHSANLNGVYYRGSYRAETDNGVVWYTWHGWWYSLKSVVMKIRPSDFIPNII
UniProt Q80UY2: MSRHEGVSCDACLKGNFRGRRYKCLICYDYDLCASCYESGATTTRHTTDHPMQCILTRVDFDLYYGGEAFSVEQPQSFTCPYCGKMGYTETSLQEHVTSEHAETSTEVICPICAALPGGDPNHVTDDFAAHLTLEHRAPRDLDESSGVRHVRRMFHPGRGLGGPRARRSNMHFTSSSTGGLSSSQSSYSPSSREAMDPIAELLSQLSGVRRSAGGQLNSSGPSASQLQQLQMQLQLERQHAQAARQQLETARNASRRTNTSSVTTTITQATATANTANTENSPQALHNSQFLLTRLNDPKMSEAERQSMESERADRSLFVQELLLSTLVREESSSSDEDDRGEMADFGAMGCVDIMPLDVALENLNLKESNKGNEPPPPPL
UniProt Q6XBJ3: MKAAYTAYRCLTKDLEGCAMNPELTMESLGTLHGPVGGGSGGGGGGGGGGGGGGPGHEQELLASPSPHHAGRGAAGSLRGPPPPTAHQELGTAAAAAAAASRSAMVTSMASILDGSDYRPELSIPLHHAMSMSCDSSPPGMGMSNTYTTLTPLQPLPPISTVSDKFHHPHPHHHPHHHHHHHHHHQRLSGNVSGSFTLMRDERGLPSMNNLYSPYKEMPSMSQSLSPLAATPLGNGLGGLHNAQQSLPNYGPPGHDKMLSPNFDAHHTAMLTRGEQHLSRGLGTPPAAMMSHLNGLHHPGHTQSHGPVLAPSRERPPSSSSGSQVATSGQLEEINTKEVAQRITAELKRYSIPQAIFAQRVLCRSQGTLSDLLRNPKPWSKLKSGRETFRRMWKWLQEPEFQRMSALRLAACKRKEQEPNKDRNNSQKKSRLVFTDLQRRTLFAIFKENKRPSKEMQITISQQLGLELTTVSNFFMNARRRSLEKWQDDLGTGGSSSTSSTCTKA
UniProt Q80UK8, whole entry: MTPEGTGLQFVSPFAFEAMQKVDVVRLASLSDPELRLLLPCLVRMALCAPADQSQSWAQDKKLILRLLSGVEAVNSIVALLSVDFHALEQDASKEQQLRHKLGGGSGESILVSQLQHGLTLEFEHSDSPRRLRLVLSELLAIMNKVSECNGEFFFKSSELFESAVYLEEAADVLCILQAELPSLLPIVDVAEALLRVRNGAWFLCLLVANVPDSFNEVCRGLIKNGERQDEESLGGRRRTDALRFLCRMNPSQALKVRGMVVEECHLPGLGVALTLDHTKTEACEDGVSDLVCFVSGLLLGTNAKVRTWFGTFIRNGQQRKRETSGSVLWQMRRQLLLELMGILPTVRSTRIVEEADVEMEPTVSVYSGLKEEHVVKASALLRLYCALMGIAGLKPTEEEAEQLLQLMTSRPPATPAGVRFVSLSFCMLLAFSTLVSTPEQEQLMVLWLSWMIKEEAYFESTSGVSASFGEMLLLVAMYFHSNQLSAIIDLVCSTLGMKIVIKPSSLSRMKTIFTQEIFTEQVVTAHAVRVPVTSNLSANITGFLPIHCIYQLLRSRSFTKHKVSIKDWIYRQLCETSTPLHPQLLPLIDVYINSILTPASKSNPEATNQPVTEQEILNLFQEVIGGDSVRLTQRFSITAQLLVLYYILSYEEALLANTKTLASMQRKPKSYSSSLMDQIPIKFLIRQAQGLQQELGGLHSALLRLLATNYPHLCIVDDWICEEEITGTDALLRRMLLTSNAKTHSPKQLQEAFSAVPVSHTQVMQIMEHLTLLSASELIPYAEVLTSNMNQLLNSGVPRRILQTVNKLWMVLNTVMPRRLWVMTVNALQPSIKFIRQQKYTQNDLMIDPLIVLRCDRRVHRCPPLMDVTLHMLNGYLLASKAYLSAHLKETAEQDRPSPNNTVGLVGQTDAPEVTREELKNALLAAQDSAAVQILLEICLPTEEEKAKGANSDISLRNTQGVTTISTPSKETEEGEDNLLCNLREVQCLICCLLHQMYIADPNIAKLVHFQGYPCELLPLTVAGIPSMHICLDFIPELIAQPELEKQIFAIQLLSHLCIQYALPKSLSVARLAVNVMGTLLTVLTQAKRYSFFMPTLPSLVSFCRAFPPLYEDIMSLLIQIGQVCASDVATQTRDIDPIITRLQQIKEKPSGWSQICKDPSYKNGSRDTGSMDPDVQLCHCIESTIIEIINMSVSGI

Some of the results follow. Most values lie at the level of the controls, where differences are scatter.

Compound in the assay: CN[C@@H]1C[C@H]2O[C@@](C)([C@@H]1OC)n1c3ccccc3c3c4c(c5c6ccccc6n2c5c31)C(=O)NC4 [staurosporine]
Kind of assay: log2 fold change of tryptic peptide abundance, ligand vs vehicle (limited proteolysis) (log2 ratio); higher = more trypsin-susceptible (destabilized). Conditions: ligand concentration: 20 uM; sample: mouse liver crude lysate; replicate design: treated separately.
“UniProt Q7TSH6 (peptide sequence: GCAYIVMVHR, peptide start residue: 605)”: the log2 fold change is 0.319.
With “UniProt Q6ZPT1 (peptide sequence: ESPLSAPSDHS, peptide start residue: 607)” the figure was 0.0453.
Regarding “UniProt Q6ZWX6 (peptide sequence: HVAEVLEYTKDEQLESLFQR, peptide start residue: 114)”, the log2 fold change was -0.215.
“UniProt Q6ZPY2 (peptide sequence: NVLDFYR, peptide start residue: 1005)”: the log2 fold change was -0.179.
As for “UniProt Q80TY0 (peptide sequence: LWPFIKK, peptide start residue: 320)”, the log2 fold change is -0.216.
Consider “UniProt Q80U58 (peptide sequence: GLPNGMDADCK, peptide start residue: 159)”, for which the log2 fold change was 0.317.
With “UniProt Q80V23 (peptide sequence: GNCLLHGK, peptide start residue: 229)” the figure was -0.83; with “UniProt Q7TSN7 (peptide sequence: VSFDIASPQK, peptide start residue: 354)”, 0.153; with “UniProt Q6ZQJ5 (peptide sequence: VANAVLALPNLK, peptide start residue: 854)”, -0.0677.
With “UniProt Q6WKZ8 (peptide sequence: YFDSVQAK, peptide start residue: 1180)” the figure was 0.337; with “UniProt Q80VH0 (peptide sequence: SQNWNDLNARPETR, peptide start residue: 541)”, -0.262.
With “UniProt Q80UW8 (peptide sequence: IQAGDPVAR, peptide start residue: 173)”, the log2 fold change was 0.0494.
As for “UniProt Q7TSK7 (peptide sequence: VQECPPDGR, peptide start residue: 102)”, the log2 fold change was 0.311.
With “UniProt Q71LX4 (peptide sequence: HTSALCNACR, peptide start residue: 1504)”, the log2 fold change was -0.418.
Turning to “UniProt Q80TY5 (peptide sequence: QNNLLTVQLK, peptide start residue: 3894)”, the log2 fold change came to 0.628.
As to “UniProt Q80UG1 (peptide sequence: SAPPGDGAAEALLK, peptide start residue: 6)”, the log2 fold change was -0.241.
As for “UniProt Q6Y5D8 (peptide sequence: AHEAELER, peptide start residue: 24)”, the log2 fold change was -0.333.
Then “UniProt Q7TSA6 (peptide sequence: KSQVTLPADAGDPQPATAPK, peptide start residue: 515)”, with -0.952; and “UniProt Q6ZQ29 (peptide sequence: HSLDQDLLREDLNKK, peptide start residue: 662)”, with 0.601; and “UniProt Q71KU9 (peptide sequence: CHSANLNGVYYR, peptide start residue: 263)”, with 0.469.
As to “UniProt Q80UY2 (peptide sequence: QSMESERADR, peptide start residue: 307)”, the log2 fold change was -0.493.
For “UniProt Q6XBJ3 (peptide sequence: MLSPNFDAHHTAMLTR, peptide start residue: 258)”, the log2 fold change stood at 0.642.
For “UniProt Q7TQG1 (peptide sequence: SLQLPASPAPEPSTRPAYK, peptide start residue: 967)”, the log2 fold change is -0.237.
Turning to “UniProt Q78HU3 (peptide sequence: EYNYGFVVEK, peptide start residue: 251)”, the log2 fold change is 0.498.
“UniProt Q80UZ2 (peptide sequence: INPFSSSTNK, peptide start residue: 634)”: the log2 fold change is -0.166.
For “UniProt Q80UK8 (peptide sequence: EKPSGWSQICKDPSYK, peptide start residue: 1149)”, the log2 fold change was -0.136.
Take “UniProt Q7TQK0 (peptide sequence: LPLTNSDRPEK, peptide start residue: 483)”: the log2 fold change is 0.38.
For “UniProt Q6ZPR5 (peptide sequence: HISHQTSVNADPASHEIWR, peptide start residue: 239)”, the log2 fold change is -0.407.
As for “UniProt Q80US4 (peptide sequence: GGEYLKEHCASNTYVPIRLPK, peptide start residue: 562)”, the log2 fold change worked out at 0.234.
